Like-named read-outs stand apart in the source and are kept apart here.
Assays:
in vivo = conditions: male, Swiss CFW, mouse, plasma; for AUC: po
[1] = fed mice, alendronate 0.4 mg/kg, alone or +4x molar BAC-A6
[2] = fasted mice, alendronate 4 mg/kg; for Plasma alendronate: oral, BAC 0x
[3] = oral, 0.4 mg/kg, Plasma alendronate, fed mice, oral, alendronate 0.4 mg/kg alone or +BAC-A6 4X molar
[4] = oral, 4 mg/kg, Plasma alendronate, fasted mice, oral, alendronate 4 mg/kg alone or +BAC-A6 4X molar
[5] = oral, 4 mg/kg, Plasma alendronate, fed mice, oral, alendronate 4 mg/kg alone or +BAC-A6 4X molar

- concentration at 0 h (in vivo; [3]): 0 ng/mL
- concentration at 0.75 h (in vivo; [3]): 6.64 ng/mL
- concentration at 1 h (in vivo; [3]): 5.19 ng/mL
- concentration at 1.5 h (in vivo; oral, 0.4 mg/kg, Plasma alendronate, fed mice, oral, alendronate 0.4 mg/kg alone or +BAC-A6 4X molar, 1.5 h): 4.95 ng/mL
- concentration at 2 h (in vivo; [3]): 5.92 ng/mL
- concentration at 3 h (in vivo; oral, 0.4 mg/kg, Plasma alendronate, fed mice, oral, alendronate 0.4 mg/kg alone or +BAC-A6 4X molar, 3 h): 6.4 ng/mL
- concentration at 4 h (in vivo; [3]): 4.71 ng/mL
- concentration at 0 h (in vivo; [4]): 0 ng/mL
- concentration at 0.5 h (in vivo; oral, 4 mg/kg, Plasma alendronate, fasted mice, oral, alendronate 4 mg/kg alone or +BAC-A6 4X molar, 0.5 h): 27.2 ng/mL
- concentration at 1 h (in vivo; [4]): 28.1 ng/mL
- concentration at 2 h (in vivo; [4]): 18 ng/mL
- concentration at 4 h (in vivo; [4]): 7.83 ng/mL
- concentration at 0 h (in vivo; [5]): 0 ng/mL
- concentration at 0.75 h (in vivo; [5]): 29.9 ng/mL
- concentration at 1 h (in vivo; [5]): 28 ng/mL
- concentration at 2 h (in vivo; [5]): 13.1 ng/mL
- concentration at 4 h (in vivo; [5]): 0.93 ng/mL
- AUC (in vivo; 0.4 mg/kg, AUC (interval), fed mice, alendronate 0.4 mg/kg alone or +BAC-A6 4X molar, interval ending 0.75 h): 3.11 ng·h/mL
- AUC (in vivo; 0.4 mg/kg, AUC (interval), fed mice, alendronate 0.4 mg/kg alone or +BAC-A6 4X molar, interval ending 1 h): 1.48 ng·h/mL
- AUC (in vivo; 0.4 mg/kg, AUC (interval), fed mice, alendronate 0.4 mg/kg alone or +BAC-A6 4X molar, interval ending 1.5 h): 2.54 ng·h/mL
- AUC (in vivo; 0.4 mg/kg, AUC (interval), fed mice, alendronate 0.4 mg/kg alone or +BAC-A6 4X molar, interval ending 2 h): 2.72 ng·h/mL
- AUC (in vivo; 0.4 mg/kg, AUC (interval), fed mice, alendronate 0.4 mg/kg alone or +BAC-A6 4X molar, interval ending 3 h): 6.16 ng·h/mL
- AUC (in vivo; 0.4 mg/kg, AUC (interval), fed mice, alendronate 0.4 mg/kg alone or +BAC-A6 4X molar, interval ending 4 h): 5.56 ng·h/mL
- AUC (in vivo; 0.4 mg/kg, AUC (interval), fed mice, alendronate 0.4 mg/kg alone or +BAC-A6 4X molar, interval ending […]): 0.72 ng·h/mL
- AUC (in vivo; 0.4 mg/kg, AUC (sum), fed mice, alendronate 0.4 mg/kg alone or +BAC-A6 4X molar, 0-4 h): 22.3 ng·h/mL
- AUC (in vivo; 4 mg/kg, AUC (interval), fasted mice, alendronate 4 mg/kg alone or +BAC-A6 4X molar, interval ending 0.5 h): 6.8 ng·h/mL
- AUC (in vivo; 4 mg/kg, AUC (interval), fasted mice, alendronate 4 mg/kg alone or +BAC-A6 4X molar, interval ending 1 h): 13.8 ng·h/mL
- AUC (in vivo; 4 mg/kg, AUC (interval), fasted mice, alendronate 4 mg/kg alone or +BAC-A6 4X molar, interval ending 2 h): 23 ng·h/mL
- AUC (in vivo; 4 mg/kg, AUC (interval), fasted mice, alendronate 4 mg/kg alone or +BAC-A6 4X molar, interval ending 4 h): 25.8 ng·h/mL
- AUC (in vivo; 4 mg/kg, AUC (interval), fed mice, alendronate 4 mg/kg alone or +BAC-A6 4X molar, interval ending 0.75 h): 13.1 ng·h/mL
- AUC (in vivo; 4 mg/kg, AUC (interval), fed mice, alendronate 4 mg/kg alone or +BAC-A6 4X molar, interval ending 1 h): 7.23 ng·h/mL
- AUC (in vivo; 4 mg/kg, AUC (interval), fed mice, alendronate 4 mg/kg alone or +BAC-A6 4X molar, interval ending 2 h): 20.5 ng·h/mL
- AUC (in vivo; 4 mg/kg, AUC (interval), fed mice, alendronate 4 mg/kg alone or +BAC-A6 4X molar, interval ending 4 h): 14 ng·h/mL
- AUC (in vivo; 4 mg/kg, AUC (interval), fed mice, alendronate 4 mg/kg alone or +BAC-A6 4X molar, interval ending […]): 2.8 ng·h/mL
- AUC (in vivo; 4 mg/kg, AUC (sum), fasted mice, alendronate 4 mg/kg alone or +BAC-A6 4X molar, 0-4 h): 69.5 ng·h/mL
- AUC (in vivo; 4 mg/kg, AUC (sum), fed mice, alendronate 4 mg/kg alone or +BAC-A6 4X molar, 0-4 h): 57.6 ng·h/mL
- AUC summary line (sum divided by 4 h) [1]: 5.57 ng/mL/h
- AUC summary line (sum divided by 2 h) ([2]; BAC-A6 0x): 29.99 ng/mL/h
- Plasma alendronate ([2]; 0 h): 0.00
- Plasma alendronate ([2]; 0.5 h): 20.09
- Plasma alendronate ([2]; 0.75 h): 18.91
- Plasma alendronate ([2]; 1 h): 40.18
- Plasma alendronate ([2]; 2 h): 40.18
- Plasma alendronate ([2]; […]): 20.09
SMILES: NCCCC(O)(P(=O)(O)O)P(=O)(O)O [Alendronate, alendronate]
